Measured values reported in the supplement of paper PMC4604168 (melanoma cell lines).
The other results are listed elsewhere or left out. Many values rest on one well or one pass, so single values are uncertain.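 Cells were imaged in 1,536-well plates, and nuclei stained with an antibody against cleaved PARP were counted against all DNA-stained nuclei to give the apoptosis fraction. Screening doses were chosen to leave most cells alive, and resting and induced cleaved-PARP levels differ strongly between cell lines.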

Tests used:
Test in all cases: cleaved PARP positive nuclei fraction relative to DMSO control; melanoma cells; higher = more apoptosis
Settings in all cases: library dose: low library concentration; 72 h
501Mel = system: 501Mel
A101D = system: A101D
A2058 = system: A2058
A375 = system: A375
C32 = system: C32
CBRC008 = system: CBRC008 (line from a melanoma biopsy)
CBRC013 = system: CBRC013 (line from a melanoma biopsy)
CBRC014 = system: CBRC014 (line from a melanoma biopsy)
CBRC016 = system: CBRC016 (line from a melanoma biopsy)
CBRC017 = system: CBRC017 (line from a melanoma biopsy)
COLO792 = system: COLO792
COLO800 = system: COLO800
COLO829 = system: COLO829
G361 = system: G361
IPC-298 = system: IPC-298
IST-MEL1 = system: IST-MEL1
LB2518-MEL = system: LB2518-MEL
LOXIMVI = system: LOXIMVI
MEL-HO = system: MEL-HO

Row | Structure (SMILES) | cleaved PARP positive nuclei fraction (501Mel) | cleaved PARP positive nuclei fraction (A101D) | cleaved PARP positive nuclei fraction (A2058) | cleaved PARP positive nuclei fraction (A375) | cleaved PARP positive nuclei fraction (C32) | cleaved PARP positive nuclei fraction (CBRC008) | cleaved PARP positive nuclei fraction (CBRC013) | cleaved PARP positive nuclei fraction (CBRC014) | cleaved PARP positive nuclei fraction (CBRC016) | cleaved PARP positive nuclei fraction (CBRC017) | cleaved PARP positive nuclei fraction (COLO792) | cleaved PARP positive nuclei fraction (COLO800) | cleaved PARP positive nuclei fraction (COLO829) | cleaved PARP positive nuclei fraction (G361) | cleaved PARP positive nuclei fraction (IPC-298) | cleaved PARP positive nuclei fraction (IST-MEL1) | cleaved PARP positive nuclei fraction (LB2518-MEL) | cleaved PARP positive nuclei fraction (LOXIMVI) | cleaved PARP positive nuclei fraction (MEL-HO)
1 | Nc1ccn([C@@H]2O[C@H](CO)[C@@H](O)C2(F)F)c(=O)n1 [gemcitabine] + CN(NC(=O)CC(=O)NN(C)C(=S)c1ccccc1)C(=S)c1ccccc1 [STA4783] (first compound 0.0004 µM, partner dose 0.006 µM) | 320% | 209% | 52.5% | 984% | 99.4% | 887% | 104% | 575% | 481% | 221% | 120% | 276% | 270% | 73.7% | 110% | 129% | 59.8% | 53.1% | 106%
2 | Cn1c(=O)n(-c2ccc(C(C)(C)C#N)cc2)c2c3cc(-c4cnc5ccccc5c4)ccc3ncc21 + COc1cc2c(Oc3ccc4[nH]c(C)cc4c3F)ncnc2cc1OCCCN1CCCC1 [cediranib] (first compound 0.004 µM, partner dose 0.4 µM) | 374% | 128% | 74.4% | 83.1% | 80.2% | 49.2% | 65.3% | 86.9% | 52% | 91.9% | 51.8% | 39.5% | 150% | 73% | 47.2% | 35.6% | 185% | 31.3% | 144%
3 | CO[C@H]1C[C@@H]2CC[C@@H](C)[C@@](O)(O2)C(=O)C(=O)N2CCCC[C@H]2C(=O)O[C@H]([C@H](C)C[C@@H]2CC[C@@H](OCCO)[C@H](OC)C2)CC(=O)[C@H](C)/C=C(\C)[C@@H](O)[C@@H](OC)C(=O)[C@H](C)C[C@H](C)/C=C/C=C/C=C/1C [everolimus] + C=CCn1c(=O)c2cnc(Nc3ccc(N4CCN(C)CC4)cc3)nc2n1-c1cccc(C(C)(C)O)n1 [MK1775] (first compound 0.02 µM, partner dose 0.02 µM) | 146% | 138% | 154% | 3340% | 87% | 137% | 187% | 78.7% | 38.8% | 109% | 243% | 147% | 182% | 187% | 141% | 123% | 64.4% | 303% | 84.9%
4 | C=C(c1ccc(C(=O)O)cc1)c1cc2c(cc1C)C(C)(C)CCC2(C)C [Bexarotene] + CO[C@@H]1[C@H](N(C)C(=O)c2ccccc2)C[C@H]2O[C@]1(C)n1c3ccccc3c3c4c(c5c6ccccc6n2c5c31)C(=O)NC4 [Midostaurin] (first compound 2 µM, partner dose 0.08 µM) | 91.4% | 84.6% | 93.8% | 220% | 101% | 216% | 109% | 107% | 239% | 100% | 112% | 50.6% | 87.2% | 91.6% | 47.8% | 69.2% | 50.6% | 35.6% | 79%
5 | O=C(O)c1ccc2c(c1)nc(Nc1cccc(Cl)c1)c1ccncc12 + CO[C@@H]1[C@H](N(C)C(=O)c2ccccc2)C[C@H]2O[C@]1(C)n1c3ccccc3c3c4c(c5c6ccccc6n2c5c31)C(=O)NC4 [Midostaurin] (first compound 0.4 µM, partner dose 0.08 µM) | 79.4% | 47.2% | 145% | 56.1% | 221% | 302% | 128% | 106% | 268% | 167% | 95.3% | 115% | 306% | 219% | 47.7% | 55.7% | 41.8% | 60.8% | 61.6%
6 | C=C(c1ccc(C(=O)O)cc1)c1cc2c(cc1C)C(C)(C)CCC2(C)C [Bexarotene] + Cc1cc(N2CCOCC2)cc2[nH]c(-c3c(NC[C@@H](O)c4cccc(Cl)c4)cc[nH]c3=O)nc12 [BMS536924] (first compound 2 µM, partner dose 0.2 µM) | 90.6% | 41% | 11.3% | 39.2% | 82% | 183% | 148% | 118% | 91% | 95.5% | 92.5% | 119% | 146% | 131% | 99.3% | 37.2% | 100% | 99.8% | 77.6%
7 | Nc1nc(F)nc2c1ncn2[C@@H]1O[C@H](CO)[C@@H](O)[C@@H]1O [fludarabine] + CC1(C)NC(=O)N(c2ccc([N+](=O)[O-])c(C(F)(F)F)c2)C1=O [nilutamide] (first compound 0.2 µM, partner dose 1 µM) | 1310% | 121% | 128% | 7800% | 74.2% | 51.8% | 813% | 91.7% | 134% | 98.6% | 114% | 81.2% | 44.9% | 123% | 194% | 73.3% | 91.1% | 51.4% | 36.5%
8 | CC(C)C[C@H](NC(=O)[C@H](Cc1ccccc1)NC(=O)c1cnccn1)B(O)O [Bortezomib] + O=C(CCCCCCC(=O)Nc1ccccc1)NO [vorinostat] (first compound 0.001 µM, partner dose 0.08 µM) | 224% | 418% | 84.3% | 77.8% | 65.2% | 2090% | 60.2% | 182% | 411% | 393% | 147% | 72.7% | 47.5% | 1510% | 72.3% | 116% | 229% | 60.1% | 110%
9 | Cn1c(=O)n(-c2ccc(C(C)(C)C#N)cc2)c2c3cc(-c4cnc5ccccc5c4)ccc3ncc21 + Cc1cc(N2CCOCC2)cc2[nH]c(-c3c(NC[C@@H](O)c4cccc(Cl)c4)cc[nH]c3=O)nc12 [BMS536924] (first compound 0.004 µM, partner dose 0.2 µM) | 95% | 41.9% | 25.1% | 553% | 133% | 365% | 390% | 94.8% | 58.4% | 108% | 191% | 251% | 229% | 136% | 51.3% | 39.4% | 97.4% | 110% | 70.1%
10 | CO[C@H]1C[C@@H]2CC[C@@H](C)[C@@](O)(O2)C(=O)C(=O)N2CCCC[C@H]2C(=O)O[C@H]([C@H](C)C[C@@H]2CC[C@@H](OCCO)[C@H](OC)C2)CC(=O)[C@H](C)/C=C(\C)[C@@H](O)[C@@H](OC)C(=O)[C@H](C)C[C@H](C)/C=C/C=C/C=C/1C [everolimus] + CC1(C)NC(=O)N(c2ccc([N+](=O)[O-])c(C(F)(F)F)c2)C1=O [nilutamide] (first compound 0.02 µM, partner dose 1 µM) | 273% | 100% | 75.8% | 277% | 105% | 561% | 69.6% | 92.2% | 162% | 119% | 150% | 174% | 108% | 72% | 29.8% | 153% | 127% | 78.6% | 129%
11 | CS(=O)(=O)CCNCc1ccc(-c2ccc3ncnc(Nc4ccc(OCc5cccc(F)c5)c(Cl)c4)c3c2)o1 [lapatinib] + CO[C@@H]1[C@H](N(C)C(=O)c2ccccc2)C[C@H]2O[C@]1(C)n1c3ccccc3c3c4c(c5c6ccccc6n2c5c31)C(=O)NC4 [Midostaurin] (first compound 0.8 µM, partner dose 0.08 µM) | 70.5% | 293% | 288% | 72.5% | 110% | 389% | 106% | 118% | 157% | 96% | 141% | 78.3% | 24.6% | 111% | 147% | 180% | 275% | 274% | 107%
12 | Nc1nc(F)nc2c1ncn2[C@@H]1O[C@H](CO)[C@@H](O)[C@@H]1O [fludarabine] + C[C@@H]1CCN(C(=O)CC#N)C[C@@H]1N(C)c1ncnc2[nH]ccc12 [CP690550] (first compound 0.2 µM, partner dose 1 µM) | 1230% | 90% | 84.8% | 7190% | 101% | 49.1% | 698% | 86.1% | 75.5% | 111% | 157% | 115% | 54.8% | 79% | 95.6% | 143% | 179% | 76.8% | 138%
13 | CO[C@H]1C[C@@H]2CC[C@@H](C)[C@@](O)(O2)C(=O)C(=O)N2CCCC[C@H]2C(=O)O[C@H]([C@H](C)C[C@@H]2CC[C@@H](OCCO)[C@H](OC)C2)CC(=O)[C@H](C)/C=C(\C)[C@@H](O)[C@@H](OC)C(=O)[C@H](C)C[C@H](C)/C=C/C=C/C=C/1C [everolimus] + NC(=O)Nc1cc(-c2cccc(F)c2)sc1C(=O)N[C@H]1CCCNC1 [AZD7762] (first compound 0.02 µM, partner dose 0.02 µM) | 227% | 117% | 62.4% | 12000% | 207% | 295% | 97.9% | 105% | 173% | 69.6% | 27.7% | 242% | 106% | 159% | 117% | 112% | 252% | 399% | 182%
14 | CC(C)C[C@H](NC(=O)[C@H](Cc1ccccc1)NC(=O)c1cnccn1)B(O)O [Bortezomib] + COc1cc2c(Oc3ccc4[nH]c(C)cc4c3F)ncnc2cc1OCCCN1CCCC1 [cediranib] (first compound 0.001 µM, partner dose 0.4 µM) | 275% | 848% | 65.4% | 56.3% | 127% | 964% | 89.5% | 157% | 290% | 191% | 67.3% | 44.6% | 131% | 1600% | 57.9% | 161% | 159% | 55.5% | 26%
15 | Nc1nc(F)nc2c1ncn2[C@@H]1O[C@H](CO)[C@@H](O)[C@@H]1O [fludarabine] + C=CCn1c(=O)c2cnc(Nc3ccc(N4CCN(C)CC4)cc3)nc2n1-c1cccc(C(C)(C)O)n1 [MK1775] (first compound 0.2 µM, partner dose 0.02 µM) | 2880% | 93.7% | 117% | 9460% | 134% | 88.5% | 530% | 105% | 27.5% | 102% | 30.1% | 167% | 76.5% | 89.3% | 195% | 40% | 110% | 37.6% | 60.4%
16 | CO[C@H]1C[C@@H]2CC[C@@H](C)[C@@](O)(O2)C(=O)C(=O)N2CCCC[C@H]2C(=O)O[C@H]([C@H](C)C[C@@H]2CC[C@@H](OCCO)[C@H](OC)C2)CC(=O)[C@H](C)/C=C(\C)[C@@H](O)[C@@H](OC)C(=O)[C@H](C)C[C@H](C)/C=C/C=C/C=C/1C [everolimus] + Cc1cc(N2CCOCC2)cc2[nH]c(-c3c(NC[C@@H](O)c4cccc(Cl)c4)cc[nH]c3=O)nc12 [BMS536924] (first compound 0.02 µM, partner dose 0.2 µM) | 357% | 98.6% | 61.7% | 521% | 322% | 222% | 150% | 123% | 113% | 163% | 358% | 109% | 80.3% | 186% | 132% | 126% | 76.6% | 66.7% | 429%

Part of the list above with just cleaved PARP positive nuclei fraction (A2058) and cleaved PARP positive nuclei fraction (LOXIMVI).
Row	Structure (SMILES)	cleaved PARP positive nuclei fraction (A2058)	cleaved PARP positive nuclei fraction (LOXIMVI)
2	Cn1c(=O)n(-c2ccc(C(C)(C)C#N)cc2)c2c3cc(-c4cnc5ccccc5c4)ccc3ncc21 + COc1cc2c(Oc3ccc4[nH]c(C)cc4c3F)ncnc2cc1OCCCN1CCCC1 [cediranib] (first compound 0.004 µM, partner dose 0.4 µM)	74.4%	31.3%
3	CO[C@H]1C[C@@H]2CC[C@@H](C)[C@@](O)(O2)C(=O)C(=O)N2CCCC[C@H]2C(=O)O[C@H]([C@H](C)C[C@@H]2CC[C@@H](OCCO)[C@H](OC)C2)CC(=O)[C@H](C)/C=C(\C)[C@@H](O)[C@@H](OC)C(=O)[C@H](C)C[C@H](C)/C=C/C=C/C=C/1C [everolimus] + C=CCn1c(=O)c2cnc(Nc3ccc(N4CCN(C)CC4)cc3)nc2n1-c1cccc(C(C)(C)O)n1 [MK1775] (first compound 0.02 µM, partner dose 0.02 µM)	154%	303%
